Measured values published in patent publication US20160008424A1.
These are yes or no findings as the source states them, for the method shown. Binding seen in cells or lysates may run through a third protein. Some results given as binding are weak or reduced against the parent protein; the word gives no strength.

Protein sequences, listed by entry. Tags and fused reporters are not part of them. Residues count along the entry.
UniProt P67775: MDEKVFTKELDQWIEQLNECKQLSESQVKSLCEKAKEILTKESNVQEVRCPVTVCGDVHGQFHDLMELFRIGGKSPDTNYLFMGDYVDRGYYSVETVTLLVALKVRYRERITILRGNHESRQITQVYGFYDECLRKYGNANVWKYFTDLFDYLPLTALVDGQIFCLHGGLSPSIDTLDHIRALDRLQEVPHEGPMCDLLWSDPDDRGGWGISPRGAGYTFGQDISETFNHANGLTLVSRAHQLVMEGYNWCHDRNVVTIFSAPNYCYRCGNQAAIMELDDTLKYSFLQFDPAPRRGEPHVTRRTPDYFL
UniProt Q01105, residues 2-290: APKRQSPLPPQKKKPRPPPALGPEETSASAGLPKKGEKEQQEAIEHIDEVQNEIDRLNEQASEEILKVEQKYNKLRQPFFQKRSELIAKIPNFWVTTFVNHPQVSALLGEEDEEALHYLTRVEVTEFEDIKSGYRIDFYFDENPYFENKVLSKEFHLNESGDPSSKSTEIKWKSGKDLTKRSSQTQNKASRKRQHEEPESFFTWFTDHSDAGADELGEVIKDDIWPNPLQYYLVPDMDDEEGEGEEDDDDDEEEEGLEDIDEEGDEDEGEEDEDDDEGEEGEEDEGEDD

Molecular target: catalytic subunit of PP2A, endogenous in MDA-MB-231 cells (human) (UniProt P67775)
Test: co-immunoprecipitation with the PP2A catalytic subunit from MDA-MB-231 cells, immunoblot

Q: “I2PP2A (also known as SET), endogenous in human cells (from UniProt Q01105 2-290)” was tested. Which binding did it give?
A: binds
